In publication PMC6326804, “Structural insights into a unique preference for 3′ terminal guanine of mirtron in Drosophila TUTase tailor” (Nucleic Acids Research, 2018):
For some of these results: A weaker result is weaker than the reference pair of the same experiment. For some of these results: For at least one entry, the source does not settle the construct or the ends of the probe. For some of these results: At least one verdict was read from the data and is not stated in words by the source.

The chains behind the UniProt entries cited, without tags or fusion partners. Residues count along the entry.
UniProt Q9VI58, 202-560: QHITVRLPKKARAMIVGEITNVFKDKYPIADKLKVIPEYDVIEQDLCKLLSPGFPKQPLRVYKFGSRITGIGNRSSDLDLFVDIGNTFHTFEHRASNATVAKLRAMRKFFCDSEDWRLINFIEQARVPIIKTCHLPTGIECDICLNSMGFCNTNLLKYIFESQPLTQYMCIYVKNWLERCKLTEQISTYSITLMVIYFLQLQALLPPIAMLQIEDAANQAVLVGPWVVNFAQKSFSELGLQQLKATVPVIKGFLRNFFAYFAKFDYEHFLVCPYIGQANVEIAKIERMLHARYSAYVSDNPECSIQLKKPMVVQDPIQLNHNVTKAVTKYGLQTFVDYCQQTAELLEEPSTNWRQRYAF
UniProt Q9VI58, 202-560 H294A: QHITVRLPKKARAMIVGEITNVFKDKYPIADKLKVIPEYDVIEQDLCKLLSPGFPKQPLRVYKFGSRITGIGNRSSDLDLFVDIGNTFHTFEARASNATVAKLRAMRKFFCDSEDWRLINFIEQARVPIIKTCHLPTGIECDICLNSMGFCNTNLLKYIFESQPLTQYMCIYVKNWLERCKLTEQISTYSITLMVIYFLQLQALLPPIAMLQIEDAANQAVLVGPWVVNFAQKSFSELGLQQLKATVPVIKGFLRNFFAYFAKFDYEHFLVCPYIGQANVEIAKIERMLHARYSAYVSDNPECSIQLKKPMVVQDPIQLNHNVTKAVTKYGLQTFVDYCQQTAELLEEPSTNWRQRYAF
UniProt Q9VI58, 202-560 N347A: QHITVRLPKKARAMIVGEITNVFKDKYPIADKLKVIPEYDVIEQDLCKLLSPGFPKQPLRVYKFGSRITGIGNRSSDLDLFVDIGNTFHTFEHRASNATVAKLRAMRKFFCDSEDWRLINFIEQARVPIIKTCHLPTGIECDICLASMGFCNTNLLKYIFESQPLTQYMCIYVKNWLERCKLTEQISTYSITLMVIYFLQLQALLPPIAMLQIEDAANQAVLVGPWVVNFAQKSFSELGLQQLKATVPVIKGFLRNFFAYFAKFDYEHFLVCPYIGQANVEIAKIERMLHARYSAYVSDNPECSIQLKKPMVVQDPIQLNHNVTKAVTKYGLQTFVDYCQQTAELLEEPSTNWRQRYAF
UniProt Q9VI58, 202-560 R295A: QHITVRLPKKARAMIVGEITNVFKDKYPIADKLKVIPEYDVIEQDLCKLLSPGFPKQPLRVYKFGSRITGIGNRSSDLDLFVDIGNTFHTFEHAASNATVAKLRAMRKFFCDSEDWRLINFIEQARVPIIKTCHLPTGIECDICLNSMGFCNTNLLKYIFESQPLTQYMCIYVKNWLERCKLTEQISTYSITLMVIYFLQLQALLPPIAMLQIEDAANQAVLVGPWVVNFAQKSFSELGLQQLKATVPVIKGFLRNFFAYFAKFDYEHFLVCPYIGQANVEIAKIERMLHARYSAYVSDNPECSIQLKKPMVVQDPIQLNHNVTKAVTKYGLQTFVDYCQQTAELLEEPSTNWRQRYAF
UniProt Q9VI58, 202-560 R295K: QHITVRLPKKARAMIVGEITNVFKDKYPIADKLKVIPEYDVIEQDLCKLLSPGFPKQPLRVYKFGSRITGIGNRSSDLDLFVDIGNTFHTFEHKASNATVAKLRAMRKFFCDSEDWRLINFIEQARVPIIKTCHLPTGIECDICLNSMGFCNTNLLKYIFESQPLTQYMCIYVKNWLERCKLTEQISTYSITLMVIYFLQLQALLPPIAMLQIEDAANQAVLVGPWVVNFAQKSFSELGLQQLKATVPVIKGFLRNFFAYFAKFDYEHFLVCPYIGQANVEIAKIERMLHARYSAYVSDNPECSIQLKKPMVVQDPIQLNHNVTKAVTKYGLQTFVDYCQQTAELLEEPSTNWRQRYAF
UniProt Q9VI58, 202-560 R327A: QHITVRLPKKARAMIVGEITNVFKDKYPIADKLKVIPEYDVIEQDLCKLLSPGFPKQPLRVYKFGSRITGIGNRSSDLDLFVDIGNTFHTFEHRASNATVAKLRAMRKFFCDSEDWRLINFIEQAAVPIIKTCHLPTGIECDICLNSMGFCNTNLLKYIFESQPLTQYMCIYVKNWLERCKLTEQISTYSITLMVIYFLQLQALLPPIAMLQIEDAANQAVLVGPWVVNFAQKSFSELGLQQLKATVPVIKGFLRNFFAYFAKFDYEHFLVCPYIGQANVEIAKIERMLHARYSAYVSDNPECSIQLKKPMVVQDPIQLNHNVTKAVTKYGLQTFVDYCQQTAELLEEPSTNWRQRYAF
UniProt Q9VI58, 202-560 R327K: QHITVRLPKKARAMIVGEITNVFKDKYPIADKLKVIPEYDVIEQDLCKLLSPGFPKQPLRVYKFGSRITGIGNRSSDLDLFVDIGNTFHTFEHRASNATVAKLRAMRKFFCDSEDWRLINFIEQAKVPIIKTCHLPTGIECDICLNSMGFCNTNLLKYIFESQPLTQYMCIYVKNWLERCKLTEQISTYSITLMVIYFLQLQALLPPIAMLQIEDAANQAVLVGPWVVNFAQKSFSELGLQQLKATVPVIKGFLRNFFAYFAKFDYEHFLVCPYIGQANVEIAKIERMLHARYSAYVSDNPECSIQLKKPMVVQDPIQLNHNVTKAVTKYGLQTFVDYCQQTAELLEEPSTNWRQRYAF

Assays:
Assay in all cases: EMSA
Conditions in all cases: no Mg2+ added; EMSA: 25 mM Tris-HCl pH 7.2, 100 mM NaCl, 5 mM DTT, 500 nM Cy5-RNA, 0-2.5 uM protein, 30 min on ice; 6% native gel at 4 C; recombinant protein; residues 202-560; protein details: 8xHis-SUMO tag removed by ULP1; label: 5'-Cy5
[1] = target: Tailor-C (UniProt Q9VI58)
[2] = target: Tailor-C H294A (UniProt Q9VI58)
[3] = target: Tailor-C N347A (UniProt Q9VI58)
[4] = target: Tailor-C R295A (UniProt Q9VI58)
[5] = target: Tailor-C R295K (UniProt Q9VI58)
[6] = target: Tailor-C R327A (UniProt Q9VI58)
[7] = target: Tailor-C R327K (UniProt Q9VI58)

**Q.** Does CAUAUUCACAG [truncated miR-1003 (3'G)] bind [1]?
**A.** Result: binds

**Q.** Does CAUAUUCACAG [truncated miR-1003 (3'G)] bind [2]?
**A.** Result: binds more weakly

**Q.** Does CAUAUUCACAG [truncated miR-1003 (3'G)] bind [3]?
**A.** Result: binds more weakly

**Q.** Does CAUAUUCACAG [truncated miR-1003 (3'G)] bind [4]?
**A.** Result: binds more weakly

**Q.** Does CAUAUUCACAG [truncated miR-1003 (3'G)] bind [5]?
**A.** Result: binds more weakly

**Q.** Does CAUAUUCACAG [truncated miR-1003 (3'G)] bind [6]?
**A.** Result: binds more weakly

**Q.** Does CAUAUUCACAG [truncated miR-1003 (3'G)] bind [7]?
**A.** Result: binds more weakly
